Consider 1 molecule from patent publication US7199219B1, “Polypeptides derived from vitamin D nuclear receptor, and their uses in particular for screening vitamin D analogues” (Centre National de la Recherche Scientifique, priority 1999, dated 2007).

The chains behind the UniProt entries cited, without tags or fusion partners. Residues count along the entry.
UniProt P19793, residues 223-462: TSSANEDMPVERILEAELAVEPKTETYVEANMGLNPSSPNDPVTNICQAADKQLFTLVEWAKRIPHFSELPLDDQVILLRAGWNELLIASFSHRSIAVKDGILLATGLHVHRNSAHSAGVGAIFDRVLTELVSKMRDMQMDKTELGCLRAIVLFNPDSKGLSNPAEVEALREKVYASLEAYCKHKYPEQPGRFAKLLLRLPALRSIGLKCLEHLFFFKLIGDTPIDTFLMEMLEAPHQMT

The experiment deals with LBD of RXRα (human) (UniProt P19793). The experiment is described as follows: dimerisation; method not described.

Results are given in words; binding and its absence hold for the method and conditions named. Some entries that bind do so weakly or less than the wild type.

B1: hVDR (118-427 Δ165-215) (receptor)
chain: DSLRPKLSEEQQRIIAILLDAHHKTYDPTYSDFCQFRPPVRVNDGGGSVTLELSQLSMLPHLADLVSYSIQKVIGFAKMIPGFRDLTSEDQIVLLKSSAIEVIMLRSNESFTMDDMSWTCGNQDYKYRVSDVTKAGHSLELIEPLIKFQVGLKKLNLHEEEHVLLMAICIVSPDRPGVQDAALIEAIQDRLSNTLQTYIRCRHPPPGSHLLYAKMIQKLADLRSLNEEHSKQYRCLSFQPECSMKLTPLVLEVFGNEIS
For the molecule B1, the binding result is reported as “binds”.
